Experimental data: publication PMC6355839, “Functional role of PGAM5 multimeric assemblies and their polymerization into filaments” (Nature Communications, 2019)
Results are given in words; binding and its absence hold for the method and conditions named. Some binding calls cover weakened binding; strength is not graded here. Values belong to the binder of their own block, whether it stands above or below them.

Assays:
[1] = target: endogenous cleaved PGAM5 (after CCCP treatment) (human (endogenous in HEK293T)) (UniProt Q96HS1); test: native gel or EMSA; BN-PAGE, 4–16% native-PAGE gel, mitochondrial and cytoplasmic fractions of HEK293T cells untreated or 4 h after 50 µM CCCP, immunoblot with anti-PGAM5
∆48 PGAM5 F244E = ∆48 PGAM5 F244E (UniProt Q96HS1); test: SEC; Superose 6 10/300 GL Increase; 20 mM Tris-Cl pH 8.0, 150 mM NaCl, 0.5 mM TCEP; salt titration up to 1 M NaCl; both purified

binding [1]: binds
B1: endogenous cleaved PGAM5 (after CCCP treatment) (protein, UniProt Q96HS1 25-289)
chain: AVAVGKPRAGGDAEPRPAEPPAWAGGARPGPGVWDPNWDRREPLSLINVRKRNVESGEEELASKLDHYKAKATRHIFLIRHSQYHVDGSLEKDRTLTPLGREQAELTGLRLASLGLKFNKIVHSSMTRAIETTDIISRHLPGVCKVSTDLLREGAPIEPDPPVSHWKPEAVQYYEDGARIEAAFRNYIHRADARQEEDSYEIFICHANVIRYIVCRALQFPPEGWLRLSLNNGSITHLVIRPNGRVALRTLGDTGFMPPDKITRS

binding (∆48 PGAM5 F244E): no binding
B2: ∆48 PGAM5 F244E (domain or fragment, UniProt Q96HS1 49-289)
chain: GGARPGPGVWDPNWDRREPLSLINVRKRNVESGEEELASKLDHYKAKATRHIFLIRHSQYHVDGSLEKDRTLTPLGREQAELTGLRLASLGLKFNKIVHSSMTRAIETTDIISRHLPGVCKVSTDLLREGAPIEPDPPVSHWKPEAVQYYEDGARIEAAFRNYIHRADARQEEDSYEIFICHANVIRYIVCRALQEPPEGWLRLSLNNGSITHLVIRPNGRVALRTLGDTGFMPPDKITRS
